The shares of active, inactive and inconclusive entries below differ from those in the screen. Activity calls are given as the source filed them.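 How the source made its calls: active means fitted curve falls past -35% activity change at a concentration under twice the top valid dose, in every test run; inconclusive means test runs disagree, some active and some inactive; inactive means all test runs inactive, including signal rising instead of falling.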
assay: inhibitors of IL-1beta-stimulated NF-kB luciferase reporter, dose response, selectivity assay for EBV LMP1 NF-kB inhibitor project, LMP1 TES2-inducible cells, dry powder (AID 624360); conditions: HEK293 IL-1beta-induced NF-kB luciferase reporter (LMP1 TES2-inducible cell line), 16 h; at 26 µM (top of the series) unless noted

Compound | activity change, negative = inhibition
CCn1c2ccccc2c2cc(/C=N/n3cnnc3)ccc21 | inconclusive: 43.6%
C=C1C[C@]23C[C@@]1(O)CC[C@H]2[C@@]12C=C[C@H](O)[C@@](C)(C(=O)O1)[C@H]2[C@@H]3C(=O)O | inactive: 13.6% [at 15 µM]
C[C@@H]1CN([C@@H](C)CO)C(=O)c2cc(NC(=O)Nc3ccc(C(F)(F)F)cc3)ccc2O[C@@H](C)CCCCO[C@H]1CN(C)Cc1ccc(C(F)(F)F)cc1 | inactive: 12.7%
C/C(=N\NC(=S)N1CC2CCC(CC2)C1)c1ccncn1 | inconclusive: -69.7% [at 19.5 µM]
COc1ccc(C(=O)Nc2ccc3[nH]ccc3c2)cc1 | inactive: 20.3%
C[C@@H]1CN([C@@H](C)CO)C(=O)c2cc(NC(=O)Nc3ccc(C(F)(F)F)cc3)ccc2O[C@@H](C)CCCCO[C@@H]1CN(C)CC1CCCCC1 | inconclusive: -79.2%
Oc1cccc(C(Nc2nccs2)c2ccc3cccnc3c2O)c1 (stereo not drawn) | inconclusive: -15.2%
Cc1c(NC(=O)c2cccc(NC(=O)COc3ccccc3C#N)c2)c(=O)n(-c2ccccc2)n1C | inactive: 14.8%
CNC[C@@H]1Oc2ccc(NS(=O)(=O)c3cn(C)cn3)cc2CC(=O)N([C@H](C)CO)C[C@@H]1C | inconclusive: 102%
C=C1C[C@]23C[C@@]1(O)CC[C@@H]2c1cccc(C)c1[C@@H]3C(=O)O | inconclusive: -67.7%
CC1=C(C(=O)OCc2ccc3c(c2)OCO3)C(c2ccc(F)cc2)NC(=O)N1 (stereo not drawn) | inconclusive: 42.4%
C[C@@H]1CCCCO[C@H](CN(C)S(=O)(=O)c2ccccc2)[C@@H](C)CN([C@@H](C)CO)C(=O)c2cc(N(C)C)ccc2O1 | inactive: 9.13%
c1ccc(-c2cn3c4c(sc3n2)CCCC4)cc1 | inactive: 8.88%
CSC(=S)N/N=C(\C)c1cccc(C)n1 | inconclusive: -59.4% [at 19.5 µM]
C/C(=N\NC(=S)N1CC2CCC(CC2)C1)c1cccc(C)n1 | inconclusive: -35.5% [at 19.5 µM]
COc1ccc(-c2cc3nc4n(c(=O)c3s2)CCC4)cc1 | inactive: 19.5%
CSc1nc(-c2ccc(C)cc2)nc(C(Cl)Cl)n1 | inconclusive: -28.7%
CCc1ccc(/C=C2\SC(=S)N(CCCC(=O)Nc3ccccn3)C2=O)cc1 | inactive: 40.6%
O=C(CSc1nnc2c3ccccc3n(Cc3ccccc3)c2n1)NCc1ccco1 | inconclusive: -96.7%
C=CCN1Cc2ccccc2[C@@H]2OC(c3ccc(OCCCO)cc3)=N[C@]2(CCC(=O)OC(C)(C)C)C1=O | inactive: 37.8%
C[C@H](CO)N1C[C@H](C)[C@@H](CN(C)CC2CCCCC2)OCCCC[C@H](C)Oc2ccc(NC(=O)Nc3cccc4ccccc34)cc2C1=O | inconclusive: 33.4% [at 19.5 µM]
CCc1sc(C(=O)Nc2ncccc2O)cc1C | inactive: 6.99%
O=c1[nH]c(=O)n([C@H]2C[C@H](O)[C@@H](CO)O2)cc1C(F)(F)F | inconclusive: -51.6%

A draw from above in order of count of non-hydrogen atoms, rising.
Compound | activity change, negative = inhibition
O=C(CSc1nnc2c3ccccc3n(Cc3ccccc3)c2n1)NCc1ccco1 | inconclusive: -96.7%
CNC[C@@H]1Oc2ccc(NS(=O)(=O)c3cn(C)cn3)cc2CC(=O)N([C@H](C)CO)C[C@@H]1C | inconclusive: 102%
Cc1c(NC(=O)c2cccc(NC(=O)COc3ccccc3C#N)c2)c(=O)n(-c2ccccc2)n1C | inactive: 14.8%
C[C@@H]1CN([C@@H](C)CO)C(=O)c2cc(NC(=O)Nc3ccc(C(F)(F)F)cc3)ccc2O[C@@H](C)CCCCO[C@H]1CN(C)Cc1ccc(C(F)(F)F)cc1 | inactive: 12.7%

Reference: PubChem BioAssay AID624360 (Broad Institute, 2012)
